Source: publication PMC5092051
Results are given in words; binding and its absence hold for the method and conditions named. In cells and extracts the contact can be indirect. A result given as binding can be weak or reduced; the word gives no strength.

By UniProt entry, the sequences of proteins in these tests, tags left out. Where a name states a change or a piece, a line headed by the entry shows the natural chain unless it says otherwise.
UniProt Q9D5V5: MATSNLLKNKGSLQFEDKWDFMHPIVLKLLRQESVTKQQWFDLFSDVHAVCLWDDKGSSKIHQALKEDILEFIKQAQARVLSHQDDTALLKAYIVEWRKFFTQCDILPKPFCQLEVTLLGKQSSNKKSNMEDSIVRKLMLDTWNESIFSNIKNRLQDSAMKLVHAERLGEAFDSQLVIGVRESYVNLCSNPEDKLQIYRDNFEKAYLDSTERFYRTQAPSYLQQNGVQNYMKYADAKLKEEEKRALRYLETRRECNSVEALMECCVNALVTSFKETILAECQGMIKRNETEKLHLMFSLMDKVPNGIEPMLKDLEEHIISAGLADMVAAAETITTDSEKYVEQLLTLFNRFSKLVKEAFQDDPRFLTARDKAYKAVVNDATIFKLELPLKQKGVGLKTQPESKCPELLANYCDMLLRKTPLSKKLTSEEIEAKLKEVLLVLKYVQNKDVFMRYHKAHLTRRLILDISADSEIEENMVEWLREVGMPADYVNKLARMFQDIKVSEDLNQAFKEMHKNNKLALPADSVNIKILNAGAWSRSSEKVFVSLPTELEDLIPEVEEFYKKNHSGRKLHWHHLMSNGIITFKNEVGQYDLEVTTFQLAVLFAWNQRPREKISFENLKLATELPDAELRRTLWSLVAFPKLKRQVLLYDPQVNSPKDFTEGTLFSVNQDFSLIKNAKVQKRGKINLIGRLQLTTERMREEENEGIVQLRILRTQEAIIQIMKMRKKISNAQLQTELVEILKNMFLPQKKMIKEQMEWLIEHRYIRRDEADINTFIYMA
UniProt Q15370: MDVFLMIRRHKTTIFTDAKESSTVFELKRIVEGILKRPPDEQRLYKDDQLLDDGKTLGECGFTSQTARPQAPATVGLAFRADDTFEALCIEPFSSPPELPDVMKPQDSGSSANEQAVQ

B1: Cas (Crk-associated substrate/p130Cas/BCAR1), endogenous (protein, UniProt P56945 1-870)
chain: MNHLNVLAKALYDNVAESPDELSFRKGDIMTVLEQDTQGLDGWWLCSLHGRQGIVPGNRLKILVGMYDKKPAGPGPGPPATPAQPQPGLHAPAPPASQYTPMLPNTYQPQPDSVYLVPTPSKAQQGLYQVPGPSPQFQSPPAKQTSTFSKQTPHHPFPSPATDLYQVPPGPGGPAQDIYQVPPSAGMGHDIYQVPPSMDTRSWEGTKPPAKVVVPTRVGQGYVYEAAQPEQDEYDIPRHLLAPGPQDIYDVPPVRGLLPSQYGQEVYDTPPMAVKGPNGRDPLLEVYDVPPSVEKGLPPSNHHAVYDVPPSVSKDVPDGPLLREETYDVPPAFAKAKPFDPARTPLVLAAPPPDSPPAEDVYDVPPPAPDLYDVPPGLRRPGPGTLYDVPRERVLPPEVADGGVVDSGVYAVPPPAEREAPAEGKRLSASSTGSTRSSQSASSLEVAGPGREPLELEVAVEALARLQQGVSATVAHLLDLAGSAGATGSWRSPSEPQEPLVQDLQAAVAAVQSAVHELLEFARSAVGNAAHTSDRALHAKLSRQLQKMEDVHQTLVAHGQALDAGRGGSGATLEDLDRLVACSRAVPEDAKQLASFLHGNASLLFRRTKATAPGPEGGGTLHPNPTDKTSSIQSRPLPSPPKFTSQDSPDGQYENSEGGWMEDYDYVHLQGKEEFEKTQKELLEKGSITRQGKSQLELQQLKQFERLEQEVSRPIDHDLANWTPAQPLAPGRTGGLGPSDRQLLLFYLEQCEANLTTLTNAVDAFFTAVATNQPPKIFVAHSKFVILSAHKLVFIGDTLSRQAKAADVRSQVTHYSNLLCDLLRGIVATTKAAALQYPSPSAAQDMVERVKELGHSTQQFRRVLGQLAAA
B2: mCherry-SOCS6 (protein, UniProt Q9JLY0 1-533)
chain: MKKISLKTFRKSFNLSKSKDETEFMVVQPQSLAGDFVKDDSLFGSCYGKDMASCDIGSEDEKGKNRSKSESLMGTLKRRLSAKQKTKGKGGTASTDEDTFSSASAPGGLKDVRAPRPIRSTSLRSHHYSPTPWPLRPTSSEETCIKMEMRVKALVHAASPGPVNGVRKDLRELQPRELRDLQPEPRPESRCSPSSPGDLSLHLEEHVPVVIGLMSQDYLQYTVPLDDGMCPLEGPRSCCLDTSSPMEVSAVPLPGASGAFSEDDSHVDQDLVVGPEILVDSSVNNLLIGTTGVMLQSPRGGHDDAPPLSPLLPPMQNNPIQRNFSGLSGPDLHMAESVRCHLNFDPNSAPGVARVYDSVQSSGPMVVTSLTEELKKLAKQGWYWGPITRWEAEGKLANVPDGSFLVRDSSDDRYLLSLSFRSHGKTLHTRIEHSNGRFSFYEQPDVEGHTSIVDLIEHSIRDSENGAFCYSRSRLPGSATYPVRLTNPVSRFMQVRSLQYLCRFVIRQYTRIDLIQKLPLPNKMKDYLQEKHY

How the values were obtained:
[1] = target: T7-tagged SOCS6 SOCS box mutant LCQQ (mouse) (UniProt Q9JLY0); assay: co-IP; anti-T7 antibody immunoprecipitates of HeLa cells transiently expressing T7-tagged wildtype or mutant SOCS6; Western blotting with antibodies to Cas, ElonginB and T7
[2] = target: T7-tagged Cul5^KR (mutated to inhibit Cullin activity) (UniProt Q9D5V5); assay: co-IP; HeLa cells co-transfected with mCherry constructs and pCAGT7Cul5KR; immunoprecipitation with mouse anti-T7 and protein A beads; blots with anti-T7 or anti-mCherry

| Molecule | binding [1] | binding [2] |
| --- | --- | --- |
| ElonginB, endogenous (from UniProt Q15370 1-118) | no binding | – |
| B1 | binds | – |
| B2 | – | binds |
